The list shows a part of the results. Shown are side measurements of this screen, not its main read-out; they come without a call. The list favours compounds with an active or inconclusive main result. Potencies come from curve fits of mixed quality, noted in brackets.
Experiment: qHTS Assay for Modulators of Lamin A Splicing
Conditions: HeLa LMNA splicing GFP/RFP minigene ratio, 48 h
Summary of the method: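 S3 HeLa cells stably expressing lamin A-EGFP splicing minigene plus DsRed2, 600 cells/well, 48 h compound exposure at 37C. Laser-scanning cytometry; analysed as GFP (500-530 nm)/RFP (575-640 nm) total intensity ratio; 0.5% DMSO vehicle.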

[1] = measured here: GFP splicing reporter channel
[2] = measured here: RFP viability control channel

SMILES	AC50 [1]	AC50 [2]
O=c1[nH]c2ccccc2nc1/C=C(\O)C(F)F	0.708 µM [falling, full curve]	0.794 µM [falling, full curve, poor fit]
Cc1ccc(C)n1-c1ccc(-c2nnco2)cc1		35.5 µM [falling, single point]
CCCn1c(C)cc(=O)c2cc(NC(=O)c3ccccn3)ccc21		0.02 µM [rising, full curve, poor fit]
C/C(Cl)=C\Cn1c(Nc2ccccc2)nc2c1c(=O)n(C)c(=O)n2C		20 µM [rising, single point]
O=C1c2ccccc2C(Nc2ccc3c(c2)OCO3)N1Cc1ccco1 (stereo unspecified)		35.5 µM [rising, single point]
CCc1nnc(NC(=O)CSc2nccn2-c2cccc(C)c2C)s1		2.51 µM [rising, single point]
COc1ccc(-c2cc(N)n(S(=O)(=O)c3ccc(F)cc3)n2)cc1OC		20 µM [rising, single point]
Cc1ccc(OCC(O)C(C)NC(C)C)c2c1CCC2 (stereo unspecified)		0.00562 µM [falling, full curve, poor fit]
CCCCN(CCCNC(=O)CN1C(=O)COc2ccccc21)c1ccccc1		35.5 µM [rising, single point]
Cc1ccc(CSC2=Nc3ccccc3C3=NC(CC(=O)NCc4cccs4)C(=O)N23)cc1 (stereo unspecified)	35.5 µM [rising, single point]	14.1 µM [rising, single point]
CN(C)c1ccc(NC(=O)CN2CCN(CC(=O)Nc3ccc(Br)cc3)CC2)cc1	35.5 µM [falling, single point]	35.5 µM [falling, single point]
Cc1c(C(=O)Nc2ccc(F)cc2)oc2ccc(S(=O)(=O)N3CCC4(CC3)OCCO4)cc12		11.2 µM [rising, partial curve]
CCCCSC1=N/C(=C/c2ccsc2)C(=O)N1c1ccccc1		14.1 µM [rising, single point]
Oc1cccc(/C=N/c2c(-c3ccco3)nc3ccccn23)c1	35.5 µM [rising, partial curve, poor fit]	
COc1ccc(Nc2nccc3c2nnn3C)cc1		31.6 µM [rising, single point]
CCN(CC)c1ccc(/C=N/NC(=O)c2c(Cl)cnn2C)c(O)c1		5.62 µM [rising, full curve]
C[C@H]1C[C@@H]2[C@H]3CCC4=CC(=O)C=C[C@@]4(C)[C@@]3(Cl)[C@@H](O)C[C@]2(C)[C@]1(OC(=O)c1ccco1)C(=O)CCl	4.47 µM [falling, partial curve, poor fit]	5.62 µM [falling, partial curve, poor fit]
Cc1c(-c2ccccc2)c(=O)oc2c(CN3CCCC3)c(O)ccc12		31.6 µM [falling, partial curve]
Cc1nc2ccn(Cc3ccccc3)c(=O)c2cc1C(=O)NCc1ccccc1F		0.447 µM [rising, full curve]

SMILES	AC50 [1]	AC50 [2]
COc1ccc(/C=C2\CCc3ccccc3C2=O)c(OC)c1OC	35.5 µM [falling, single point]	
Cc1cc(C)cc(NC(=O)N2CCCN(c3c(Cl)cncc3Cl)CC2)c1	0.0447 µM [falling, full curve, poor fit]	0.02 µM [falling, full curve, poor fit]
CC(C)(C)OC(=O)N[C@@H](CC(=O)OCc1ccccc1)C(=O)O		0.126 µM [falling, full curve, poor fit]
COC(=O)/C(=C\c1ccc([N+](=O)[O-])o1)NC(=O)c1ccccc1	12.6 µM [falling, single point]	15.8 µM [falling, partial curve, poor fit]
Cc1cc(NC(=O)CSc2nc3c(c(=O)n2-c2ccccc2)SC(C)C3)no1 (stereo unspecified)		12.6 µM [rising, single point]
CC1Cc2ccccc2N1C(=O)CSc1nccc(=O)[nH]1 (stereo unspecified)	35.5 µM [rising, single point]	
CC(C(O)c1ccc(O)cc1)N1CCC(Cc2ccccc2)CC1 (stereo unspecified)		35.5 µM [rising, single point]
COc1ccc(-n2c(C)cc(C(=O)CSc3nn4c(=O)c(C(C)(C)C)nnc4s3)c2C)cc1	11.2 µM [rising, single point]	11.2 µM [rising, single point]
CN1CCCN(C(=O)C2CCC(C(=O)N3CCCN(C)CC3)CC2)CC1 (stereo unspecified)	7.08 µM [falling, partial curve, poor fit]	
NC(=O)c1sc2nc(-c3ccco3)ccc2c1N	11.2 µM [falling, partial curve, poor fit]	3.55 µM [falling, partial curve, poor fit]
Cn1ncc(Cl)c1C(=O)NCc1cc(C(C)(C)C)n[nH]1	7.94 µM [rising, partial curve]	31.6 µM [rising, single point]
CCn1c2ccccc2c2cc(/C=N/NC(=O)c3ccc(O)cc3)ccc21	35.5 µM [falling, single point]	
Cc1nnc(SCC(=O)NC23CC4CC(CC(C4)C2)C3)n(N)c1=O		0.00398 µM [falling, full curve, poor fit]
O=C(O)Cc1n[nH]c(=O)c2ccccc12		7.08 µM [rising, full curve, poor fit]
CCOC(=O)C1=C(C)NC2=C(C(=O)CC(c3cccs3)C2)C1c1cccs1 (stereo unspecified)		31.6 µM [rising, single point]
COc1ccc(-c2nnc(Nc3nc4c(OC)cccc4s3)o2)cc1	35.5 µM [falling, single point]	
CCCc1cc(=O)[nH]c(SCC(=O)c2cc(C)n(CCC)c2C)n1		12.6 µM [rising, partial curve, poor fit]
Fc1ccc(N2CCN(C(c3cccs3)c3nnnn3CCc3ccccc3)CC2)cc1 (stereo unspecified)		35.5 µM [rising, single point]

Structural class: the compounds so far containing an aryl thioether with sulfur outside any ring
SMILES	AC50 [1]	AC50 [2]
CCc1nnc(NC(=O)CSc2nccn2-c2cccc(C)c2C)s1		2.51 µM [rising, single point]
Cc1cc(NC(=O)CSc2nc3c(c(=O)n2-c2ccccc2)SC(C)C3)no1 (stereo unspecified)		12.6 µM [rising, single point]
CC1Cc2ccccc2N1C(=O)CSc1nccc(=O)[nH]1 (stereo unspecified)	35.5 µM [rising, single point]	
COc1ccc(-n2c(C)cc(C(=O)CSc3nn4c(=O)c(C(C)(C)C)nnc4s3)c2C)cc1	11.2 µM [rising, single point]	11.2 µM [rising, single point]
Cc1nnc(SCC(=O)NC23CC4CC(CC(C4)C2)C3)n(N)c1=O		0.00398 µM [falling, full curve, poor fit]
CCCc1cc(=O)[nH]c(SCC(=O)c2cc(C)n(CCC)c2C)n1		12.6 µM [rising, partial curve, poor fit]

— PubChem BioAssay AID1487 (National Center for Advancing Translational Sciences (NCATS), 2009)
